# Reference: paper PMC4299515
# No constants are given. Whether binding was seen depends on the method and setting. Some entries that bind do so weakly or less than the wild type. Tags and fused reporters may be left off the sequences shown.
# T1: SUV39H1, GFP- or RFP-tagged, in U2OS cells (F2H) (UniProt O54864)
# T1 sequence: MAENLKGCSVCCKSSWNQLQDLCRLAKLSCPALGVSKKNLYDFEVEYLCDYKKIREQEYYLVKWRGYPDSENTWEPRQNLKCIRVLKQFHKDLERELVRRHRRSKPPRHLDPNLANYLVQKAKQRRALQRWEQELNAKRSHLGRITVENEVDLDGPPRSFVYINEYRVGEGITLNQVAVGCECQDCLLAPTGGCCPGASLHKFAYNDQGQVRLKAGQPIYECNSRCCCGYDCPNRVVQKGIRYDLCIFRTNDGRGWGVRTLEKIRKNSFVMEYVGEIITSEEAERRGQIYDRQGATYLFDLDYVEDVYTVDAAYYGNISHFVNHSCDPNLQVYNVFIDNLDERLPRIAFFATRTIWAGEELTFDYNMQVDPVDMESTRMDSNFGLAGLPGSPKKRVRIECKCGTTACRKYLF
# T2: MBD1 in U2OS cells (F2H), Q9Z2E2
# T2 chain: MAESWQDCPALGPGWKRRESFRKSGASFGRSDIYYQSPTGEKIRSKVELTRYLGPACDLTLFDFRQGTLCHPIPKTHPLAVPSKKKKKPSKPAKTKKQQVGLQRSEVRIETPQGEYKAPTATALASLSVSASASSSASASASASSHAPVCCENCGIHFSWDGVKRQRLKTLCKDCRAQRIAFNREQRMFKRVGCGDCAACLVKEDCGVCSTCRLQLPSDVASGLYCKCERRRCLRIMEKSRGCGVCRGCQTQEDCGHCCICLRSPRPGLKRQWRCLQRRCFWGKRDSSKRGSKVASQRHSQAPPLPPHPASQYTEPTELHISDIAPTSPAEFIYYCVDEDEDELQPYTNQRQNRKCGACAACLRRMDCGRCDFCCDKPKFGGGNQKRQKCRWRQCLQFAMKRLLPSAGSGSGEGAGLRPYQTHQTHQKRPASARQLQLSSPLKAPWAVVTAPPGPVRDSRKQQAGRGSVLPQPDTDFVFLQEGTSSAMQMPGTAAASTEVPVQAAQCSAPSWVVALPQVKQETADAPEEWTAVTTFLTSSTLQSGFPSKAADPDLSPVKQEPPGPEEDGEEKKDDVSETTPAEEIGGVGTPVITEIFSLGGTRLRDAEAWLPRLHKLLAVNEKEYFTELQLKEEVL
# Columns and labels:
# [1] = biological target: T1, SUV39H1, GFP- or RFP-tagged, in U2OS cells (F2H); test: two-hybrid; fluorescent two-hybrid (F2H) in living human U2OS cells: GFP-tagged protein tethered to lac-operator arrays via GBP-LacI, recruitment of the RFP-tagged protein seen by colocalization
# [2] = biological target: T2, MBD1 in U2OS cells (F2H), Q9Z2E2; test: as above; conditions: remark: other sources report otherwise
binding [1],binding [2],Binder
binds,,"SUV39H1, GFP- or RFP-tagged, in U2OS cells (F2H) (enzyme, UniProt O54864 1-412) MAENLKGCSVCCKSSWNQLQDLCRLAKLSCPALGVSKKNLYDFEVEYLCDYKKIREQEYYLVKWRGYPDSENTWEPRQNLKCIRVLKQFHKDLERELVRRHRRSKPPRHLDPNLANYLVQKAKQRRALQRWEQELNAKRSHLGRITVENEVDLDGPPRSFVYINEYRVGEGITLNQVAVGCECQDCLLAPTGGCCPGASLHKFAYNDQGQVRLKAGQPIYECNSRCCCGYDCPNRVVQKGIRYDLCIFRTNDGRGWGVRTLEKIRKNSFVMEYVGEIITSEEAERRGQIYDRQGATYLFDLDYVEDVYTVDAAYYGNISHFVNHSCDPNLQVYNVFIDNLDERLPRIAFFATRTIWAGEELTFDYNMQVDPVDMESTRMDSNFGLAGLPGSPKKRVRIECKCGTTACRKYLF"
,no binding,"SUV39H1, GFP- or RFP-tagged, in U2OS cells (F2H), O54864 1-412 (enzyme) MAENLKGCSVCCKSSWNQLQDLCRLAKLSCPALGVSKKNLYDFEVEYLCDYKKIREQEYYLVKWRGYPDSENTWEPRQNLKCIRVLKQFHKDLERELVRRHRRSKPPRHLDPNLANYLVQKAKQRRALQRWEQELNAKRSHLGRITVENEVDLDGPPRSFVYINEYRVGEGITLNQVAVGCECQDCLLAPTGGCCPGASLHKFAYNDQGQVRLKAGQPIYECNSRCCCGYDCPNRVVQKGIRYDLCIFRTNDGRGWGVRTLEKIRKNSFVMEYVGEIITSEEAERRGQIYDRQGATYLFDLDYVEDVYTVDAAYYGNISHFVNHSCDPNLQVYNVFIDNLDERLPRIAFFATRTIWAGEELTFDYNMQVDPVDMESTRMDSNFGLAGLPGSPKKRVRIECKCGTTACRKYLF"
